# US6783949B1, “Processes for determining whether a test substance contains lipases or lipase inhibitors” (Aventis Pharma Deutschland GmbH, priority 1999, dated 2004)
# “And” between values parts separate entries of the source, which are not always exact repeats. Identical values can stand only once. The source gives many values for each of these; only a part stands here.
# Molecular target: T1, HSL (Rattus norvegicus, UniProt P15304)
# T1 construct: The partially purified HSL can be stored at −70° C. for 4 to 6 weeks; from tissue; host or cells: rat epididymal fat cells (male Wistar rats)
# T1 sequence (P15304 1-768 isoform P15304-2): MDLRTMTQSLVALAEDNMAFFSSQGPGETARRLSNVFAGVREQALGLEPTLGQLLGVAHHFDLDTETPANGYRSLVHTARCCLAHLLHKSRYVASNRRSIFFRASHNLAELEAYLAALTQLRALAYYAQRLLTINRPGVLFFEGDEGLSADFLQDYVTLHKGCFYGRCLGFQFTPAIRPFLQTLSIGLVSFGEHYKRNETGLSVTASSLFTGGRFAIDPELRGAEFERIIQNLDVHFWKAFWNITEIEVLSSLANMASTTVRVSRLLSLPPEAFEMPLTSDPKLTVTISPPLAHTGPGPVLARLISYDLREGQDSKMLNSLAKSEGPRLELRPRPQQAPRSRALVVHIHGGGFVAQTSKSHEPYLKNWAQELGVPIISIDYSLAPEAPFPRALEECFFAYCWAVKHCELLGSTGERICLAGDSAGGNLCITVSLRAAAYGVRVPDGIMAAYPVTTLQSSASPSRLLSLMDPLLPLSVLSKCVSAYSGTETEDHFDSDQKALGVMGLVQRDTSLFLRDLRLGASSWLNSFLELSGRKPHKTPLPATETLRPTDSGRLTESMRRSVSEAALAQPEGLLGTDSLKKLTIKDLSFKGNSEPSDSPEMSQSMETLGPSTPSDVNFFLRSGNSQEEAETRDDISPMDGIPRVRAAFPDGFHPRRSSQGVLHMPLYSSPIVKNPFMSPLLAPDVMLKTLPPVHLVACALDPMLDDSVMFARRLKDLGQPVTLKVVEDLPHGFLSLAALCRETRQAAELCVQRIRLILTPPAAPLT
# Test: Indirect NAG assay (extinction increase at 481 nm)
# Format: biochemical
# Procedure: A typical reaction is carried out at 30° C. for 60 min, for example in 1.5 ml Eppendorf vessels or 96-hole plates. […] 180 μl of the substrate solution (20 μg/ml of phosphatidylcholine, 10 μg/ml of phosphatidylinositol, 50 μg/ml of NAG in assay buffer) are added. After a preincubation for 15 min at 30° C., 20 μl of HSL in assay buffer are pipetted in and the extinction is immediately measured (see above) at 481 nm in a cuvette photometer (0.5 ml cuvette) or microtiter plate reader. After a certain incubation time, which is variable and depends on the chosen enzyme concentration and can be between 2 and 240 minutes, in this case incubation at 30° C. for 60 min, the extinction is measured again. The increase in the extinction in the yellow region, in this case at 481 nm, is a measure of the enzyme activity.
# Isolated rat fat cells are obtained from epididymal fatty tissue from untreated male rats (Wistar, 220-250 g) by collagenase treatment according to published processes. The fat cells from 10 rats are washed three times by flotation with 50 ml each of homogenization buffer ([…], pH 7.4, 0.25 M sucrose, 1 mM ethylenediamine-N,N,N′,N′-tetraacetic acid (EDTA), 1 mM dithiothreitol (DTT), 10 μg/ml of leupeptin, 10 μg/ml of antipain, 20 μg/ml of pepstatin) and finally taken up in 10 ml of homogenization buffer. The fat cells are homogenized in a Teflon-in-glass homogenizer (Braun-Melsungen) by 10 strokes at 1500 rpm and 15° C. The homogenizate is centrifuged (Sorvall SM24 tubes, 5000 rpm, 10 min, 4° C.). The […] between the overlying fatty layer and the pellet is removed and the centrifugation is repeated. The […] resulting from this is centrifuged again (Sorvall SM24 tubes, 20,000 rpm, 45 min, 4° C.). […] After incubation for 60 min at 4° C. (shake at intervals of 15 min), the batch is centrifuged (Sorvall SM24 tubes, 3000 rpm, 10 min, 4° C.). The supernatant is brought to pH 5.2 by addition of glacial acetic acid and incubated at 4° C. for 30 min. […] The suspension is dialyzed overnight at 4° C. against 25 mM TRIS/HCl, pH 7.4, 50% glycerol, 1 mM DTT, and 10 μg/ml of leupeptin, pepstatin, and antipain and then applied to a hydroxylapatite column (0.1 g per 1 ml of suspension, equilibrated with 10 mM potassium phosphate, pH 7.0, 30% glycerol, 1 mM DTT). The column is washed with four volumes of equilibration buffer at a flow rate of 20 to 30 ml/h. The HSL is eluted with a volume of equilibration buffer which contains 0.5 M potassium phosphate, then dialyzed (see above) and concentrated 5 to 10 times by ultrafiltration (Amicon Diaflo PM 10 filter) at 4° C. The partially purified HSL can be stored at −70° C. for 4 to 6 weeks.
# 6 mg of phosphatidylcholine and 6 mg of phosphatidylinositol are dissolved in 1 ml of chloroform each. 10 mg of NAG are dissolved in 1 ml of chloroform. […] The chloroform (225 μl total volume) is completely removed by overblowing with a stream of N2. The dried substrate can be stored at 4° C. for up to three days. For the preparation of the phospholipid vesicles/micelles having intercalated NAG (on the test day), the dried substrate is taken up in 20 ml of assay buffer (25 mM TRIS/HCl, pH 7.4; 150 mM NaCl) and two ultrasonic treatments with an ultrasonic probe (Branson Sonifier type 11, standard microtip): 1st treatment setting 2, 2×1 min, in between in each case 1 min on ice; 2nd treatment setting 4, 2×1 min, in between in each case 1 min on ice. […] Before use as a substrate (within the next 2 h), the solution is additionally incubated on ice for 15 min.
# The assay is carried out at 30° C. for 60 min in 1.5 ml Eppendorf vessels or 96-hole plates.
structure (smiles),measurement,setting,value
O=C(CCCCCCCCCCCNc1ccc([N+](=O)[O-])c2nonc12)OCC(O)CO (stereo not shown) [Compound (3)],Increase in the absorption at 481 nm,"96-hole microtiter plate, 200 μl, 1 min, Tests 1-8, listed as NAG",50 arb. units and 48 arb. units and 61 arb. units and 49 arb. units and 56 arb. units and 52 arb. units and 57 arb. units
same,Increase in the absorption at 481 nm,"96-hole microtiter plate, 200 μl, 2 min, Tests 1-8, listed as NAG",97 arb. units and 89 arb. units and 107 arb. units and 95 arb. units and 101 arb. units and 116 arb. units and 93 arb. units
same,Increase in the absorption at 481 nm,"96-hole microtiter plate, 200 μl, 5 min, Tests 1-8, listed as NAG",238 arb. units and 269 arb. units and 278 arb. units and 243 arb. units and 277 arb. units and 248 arb. units and 235 arb. units and 241 arb. units
same,Increase in the absorption at 481 nm,"96-hole microtiter plate, 200 μl, 10 min, Tests 1-8, listed as NAG",487 arb. units and 534 arb. units and 462 arb. units and 458 arb. units and 552 arb. units and 508 arb. units and 488 arb. units and 460 arb. units
same,Increase in the absorption at 481 nm,"96-hole microtiter plate, 200 μl, 15 min, Tests 1-8, listed as NAG",713 arb. units and 768 arb. units and 709 arb. units and 712 arb. units and 789 arb. units and 780 arb. units and 735 arb. units and 718 arb. units
same,Increase in the absorption at 481 nm,"96-hole microtiter plate, 200 μl, 20 min, Tests 1-8, listed as NAG",978 arb. units and 1013 arb. units and 967 arb. units and 979 arb. units and 1097 arb. units and 1121 arb. units and 1045 arb. units and 966 arb. units
same,Increase in the absorption at 481 nm,"96-hole microtiter plate, 200 μl, 30 min, Tests 1-8, listed as NAG",1413 arb. units and 1579 arb. units and 1625 arb. units and 1690 arb. units and 1523 arb. units and 1688 arb. units and 1452 arb. units and 1410 arb. units
same,Increase in the absorption at 481 nm,"96-hole microtiter plate, 200 μl, 45 min, Tests 1-8, listed as NAG",2045 arb. units and 2134 arb. units and 2239 arb. units and 2106 arb. units and 2238 arb. units and 1967 arb. units and 2145 arb. units
same,Increase in the absorption at 481 nm,"96-hole microtiter plate, 200 μl, 60 min, Tests 1-8, listed as NAG",2367 arb. units and 2541 arb. units and 2658 arb. units and 2755 arb. units and 2534 arb. units and 2608 arb. units and 2536 arb. units and 2690 arb. units
same,Increase in the absorption at 481 nm,"96-hole microtiter plate, 200 μl, 75 min, Tests 1-8, listed as NAG",2611 arb. units and 2894 arb. units and 2973 arb. units and 3023 arb. units and 2871 arb. units and 2879 arb. units and 2982 arb. units and 2895 arb. units
same,Increase in the absorption at 481 nm,"96-hole microtiter plate, 200 μl, 90 min, Tests 1-8, listed as NAG",2985 arb. units and 3244 arb. units and 3310 arb. units and 3355 arb. units and 3260 arb. units and 3122 arb. units and 3240 arb. units and 3125 arb. units
same,Increase in the absorption at 481 nm,"96-hole microtiter plate, 200 μl, 120 min, Tests 1-8, listed as NAG",3127 arb. units and 3469 arb. units and 3577 arb. units and 3601 arb. units and 3489 arb. units and 3378 arb. units and 3507 arb. units and 3320 arb. units
same,Increase in the absorption at 481 nm,"HSL, enzyme 10 arb. units, 60 min, NAG 0.05 mg/ml",143 ± 18 arb. units
same,Increase in the absorption at 481 nm,"HSL, enzyme 20 arb. units, 60 min, NAG 0.05 mg/ml",321 ± 28 arb. units
same,Increase in the absorption at 481 nm,"HSL, enzyme 50 arb. units, 60 min, NAG 0.05 mg/ml",744 ± 58 arb. units
same,Increase in the absorption at 481 nm,"HSL, enzyme 75 arb. units, 60 min, NAG 0.05 mg/ml",1023 ± 95 arb. units
same,Increase in the absorption at 481 nm,"HSL, enzyme 100 arb. units, 60 min, NAG 0.05 mg/ml",1287 ± 165 arb. units
same,Increase in the absorption at 481 nm,"HSL, enzyme 150 arb. units, 60 min, NAG 0.05 mg/ml",2106 ± 183 arb. units
same,Increase in the absorption at 481 nm,"HSL, enzyme 200 arb. units, 60 min, NAG 0.05 mg/ml",2697 ± 231 arb. units
same,Increase in the absorption at 481 nm,"HSL, enzyme 250 arb. units, 60 min, NAG 0.05 mg/ml",3321 ± 349 arb. units
same,Increase in the absorption at 481 nm,"HSL, enzyme 300 arb. units, 60 min, NAG 0.05 mg/ml",3855 ± 288 arb. units
same,Increase in the absorption at 481 nm,"HSL, enzyme 400 arb. units, 60 min, NAG 0.05 mg/ml",4427 ± 402 arb. units
same,Increase in the absorption at 481 nm,"PI/PC 0.025 mg/ml, PI:PC 1:1, HSL 20 μg, 60 min, NAG 0.05 mg/ml",1879 ± 205 arb. units
same,Increase in the absorption at 481 nm,"PI/PC 0.025 mg/ml, PI:PC 1:3, HSL 20 μg, 60 min, NAG 0.05 mg/ml",1158 ± 121 arb. units
same,Increase in the absorption at 481 nm,"PI/PC 0.025 mg/ml, PI:PC 3:1, HSL 20 μg, 60 min, NAG 0.05 mg/ml",2980 ± 254 arb. units
same,Increase in the absorption at 481 nm,"PI/PC 0.0375 mg/ml, PI:PC 1:1, HSL 20 μg, 60 min, NAG 0.05 mg/ml",1649 ± 170 arb. units
same,Increase in the absorption at 481 nm,"PI/PC 0.0375 mg/ml, PI:PC 1:3, HSL 20 μg, 60 min, NAG 0.05 mg/ml",1230 ± 105 arb. units
same,Increase in the absorption at 481 nm,"PI/PC 0.0375 mg/ml, PI:PC 3:1, HSL 20 μg, 60 min, NAG 0.05 mg/ml",3144 ± 277 arb. units
